Conjugation yield and step yield data for two substances are collected here from patent US20100056475 (published 2010).

The data set in a line: general procedure: hybrid (solid and solution phase) peptide synthesis; DCC/HOBt; DIC or TBTU or HATU and HOBt with DIPEA. As to conditions: TFA salt or HCl salt.

Consider “6^A,6^D-dideoxy-6^A,6^D-di(Gly-Arg-Arg-Arg-Gly-Lys-Lys-Lys-NH2)amino-β-cyclodextrin (GRRRGKKK; amidated, on beta-cyclodextrin; printed: Gly-Arg-Arg-Arg-Gly-Lys-Lys-Lys-)”, for which the conjugation yield (conjugation step) stood at 21%.
Consider “6^A,6^D-dideoxy-6^A,6^D-di[Gly-Lys(Boc)-Lys(Boc)-Lys(Boc)-Boc]amino-β-cyclodextrin”, for which the step yield (late stage modification step) worked out at 66%.
